We go through seven compounds from patent publication US20250186321A1, “FORMULATION USING AMINO ACID AND CARBOXYLIC ACID, ORGANIC SALT, AND COMPOSITION COMPRISING SAME AND USE THEREOF” (MIYOSHI OIL & FAT CO., LTD., priority 2021, published 2025).

Molecules are shown by their SMILES.

Series [1] is described as follows: Evaluation on hair surface improvement (SEM of damaged hair). The note with it: 1 wt. % in 50 wt. % ethanol aqueous solution, damaged hair immersed 15 minutes.
The nature of series [2]: Sensory evaluation 1 (spreadability, moisture retention feeling, non-stickiness on skin). The note with it: diluted to 20 wt. %, sprayed on the skin; scale of 1 to 5; average of five panel members.
Series [3] in a line: Adhesiveness to hair 1 (adhesion rate). Details: species or system human. The note with it: healthy hair immersed for 60 minutes in 80 wt. % aqueous solution; from hair weight before and after.

Turning to `NCCCC[C@H](N)C(=O)O.O=C(O)[C@H](O)[C@@H](O)[C@H](O)[C@H](O)CO.O=C(O)[C@H](O)[C@@H](O)[C@H](O)[C@H](O)CO` [Formulation 30], the “hair surface improvement (raising of cuticles)” value in series [1] is reported as “particularly excellent hair surface improving effects”; in series [1] (listed as Working example 690) it was “high levels of hair surface improvement effects”.

For `N=C(N)NCCC[C@H](N)C(=O)O.O=C(O)CC(O)(CC(=O)O)C(=O)O` [Formulation 58], the “hair surface improvement (raising of cuticles)” value in series [1] is “particularly excellent hair surface improving effects”; in series [1] (listed as Working example 695), “high levels of hair surface improvement effects”.

Regarding `CC(O)C(=O)[O-].[K+]` (stereo not drawn) [Formulation 428], in series [2], the “Sensory evaluation 1: Moisture retention feeling” value amounted to 1.4, the “Sensory evaluation 1: Non stickiness” value worked out at 2.4 and the “Sensory evaluation 1: Spreadability” value worked out at 1.2. For the same compound, the “Adhesion rate of formulation” value in series [3] is 0.4%.

Consider `Cl.NCCCC[C@H](N)C(=O)O` [Formulation 429], for which, in series [2], the “Sensory evaluation 1: Moisture retention feeling” value was determined as 1.5, the “Sensory evaluation 1: Non stickiness” value stood at 2.2 and the “Sensory evaluation 1: Spreadability” value is reported as 1.4. Besides, the “Adhesion rate of formulation” value in series [3] is on record as 0.6%.

Turning to `CCCC[N+](CCCC)(CCCC)CCCC.[Br-]` [Formulation 430], the “Adhesion rate of formulation” value in series [3] was 1.0%.

As for `CCCCn1cc[n+](C)c1.F[B-](F)(F)F` [Formulation 431], in series [3], the “Adhesion rate of formulation” value is on record as 0.6%.

On to `OCC(O)CO` [Formulation 432], for which, in series [2], the “Sensory evaluation 1: Moisture retention feeling” value is listed as 3.3, the “Sensory evaluation 1: Non stickiness” value is listed as 2.1 and the “Sensory evaluation 1: Spreadability” value came to 2.8. In addition, in series [3], the “Adhesion rate of formulation” value is on record as 1.1%.
